Results on 14 substances are retold here after patent publication US4605641A (Hoffmann-La Roche Inc., priority 1984, dated 1986).

HELM strings list residues between dots; [ac] is acetyl, [am] amide, other brackets name non-standard units.

The nature of the data set: general procedure: Boc solid-phase peptide synthesis; benzhydrylamine (BHA) resin, styrene-1% divinylbenzene, 200-400 mesh (Beckman Instruments); symmetrical anhydrides or HOBt active esters of Boc-amino acids. Conditions: whole synthesis.
In turn, (Ser^11, Phe^13, Nle^17)VIP returned an isolated yield of 17.2%.

Turning to “PEPTIDE1{H.S.D.A.V.F.T.D.N.Y.T.K.L.K.K.Q.[Nle].A.V.K.K.Y.L.N.S.V.L.T.[am]}$$$$V2.0”, the isolated yield was 10.5%.

On to “PEPTIDE1{H.S.D.A.V.F.T.D.N.Y.T.K.L.R.K.Q.[Nle].A.V.K.K.Y.L.N.S.I.L.N.[am]}$$$$V2.0”, for which the isolated yield came out at 24%.

“PEPTIDE1{H.S.D.A.V.F.T.D.N.Y.T.K.L.R.K.Q.[Nle].A.V.K.K.Y.L.N.S.V.L.T.[am]}$$$$V2.0” showed an isolated yield of 13.5%.

Turning to “PEPTIDE1{H.S.D.A.V.F.T.D.N.Y.T.R.L.K.K.Q.[Nle].A.V.K.K.Y.L.N.S.I.L.N.[am]}$$$$V2.0”, the isolated yield was determined as 17%.

For the substance “PEPTIDE1{H.S.D.A.V.F.T.D.N.Y.T.R.L.R.K.Q.[Nle].A.V.K.K.Y.L.N.S.I.L.N.[am]}$$$$V2.0”, the isolated yield turned out to be 22%.

“PEPTIDE1{H.S.D.A.V.F.T.D.N.Y.T.R.L.R.K.Q.[Nle].A.V.K.K.Y.L.N.S.I.L.T.[am]}$$$$V2.0” registered an isolated yield of 18.4%.

With “PEPTIDE1{H.S.D.A.V.F.T.D.N.Y.T.R.L.R.K.Q.[Nle].A.V.K.K.Y.L.N.S.V.L.T.[am]}$$$$V2.0”, the isolated yield came to 33.5%.

Take “PEPTIDE1{H.S.D.A.V.F.T.D.N.Y.T.R.L.R.K.Q.[Nle].A.V.K.K.Y.L.N.T.I.L.N.[am]}$$$$V2.0”: the isolated yield is listed as 19.3%.

In turn, “PEPTIDE1{H.S.D.A.V.F.T.D.N.Y.T.R.L.R.K.Q.[Nle].A.V.K.K.Y.L.T.S.I.L.N.[am]}$$$$V2.0” registered an isolated yield of 11%.

As for “PEPTIDE1{H.S.D.A.V.F.T.D.N.Y.T.[Orn].L.R.K.Q.[Nle].A.V.K.K.Y.L.N.S.I.L.N.[am]}$$$$V2.0”, the isolated yield is recorded as 14%.

Substance “PEPTIDE1{[ac].H.S.D.A.V.F.T.D.N.Y.S.R.F.R.K.Q.[Nle].A.V.K.K.Y.L.N.S.I.L.N.[am]}$$$$V2.0” registered an isolated yield of 22.7%.

In turn, “PEPTIDE1{[ac].H.S.D.A.V.F.T.D.N.Y.T.K.L.R.K.Q.[Nle].A.V.K.K.Y.L.N.S.I.L.N.[am]}$$$$V2.0” yielded an isolated yield of 11%.

For “PEPTIDE1{[ac].H.S.D.A.V.F.T.D.N.Y.T.R.L.R.K.Q.[Nle].A.V.K.K.Y.L.N.S.I.L.N.[am]}$$$$V2.0”, the isolated yield is given as 26%.
